Laboratory results taken from patent publication US20200399335A1, “MODIFIED IMMUNOMODULATORY PEPTIDE” (Aarhus Universitet, priority 2018, published 2020).
At least one peptide structure holds a part that was inferred or is arguable (an end, a ring closure or a residue). Where no end group is shown, it is not given here.

Amino acid sequences for entries named in this document (tags omitted). Residues count along the entry.
UniProt Q86WV6, 135-379 limits assumed: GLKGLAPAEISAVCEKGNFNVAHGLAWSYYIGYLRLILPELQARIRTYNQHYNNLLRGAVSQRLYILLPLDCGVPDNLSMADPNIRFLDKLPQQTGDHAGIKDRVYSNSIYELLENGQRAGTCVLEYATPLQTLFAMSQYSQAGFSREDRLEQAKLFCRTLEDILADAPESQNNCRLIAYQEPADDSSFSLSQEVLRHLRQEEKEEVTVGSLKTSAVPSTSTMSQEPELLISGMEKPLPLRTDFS
UniProt Q86WV6, whole entry R71H/G230A/H232R/R293Q: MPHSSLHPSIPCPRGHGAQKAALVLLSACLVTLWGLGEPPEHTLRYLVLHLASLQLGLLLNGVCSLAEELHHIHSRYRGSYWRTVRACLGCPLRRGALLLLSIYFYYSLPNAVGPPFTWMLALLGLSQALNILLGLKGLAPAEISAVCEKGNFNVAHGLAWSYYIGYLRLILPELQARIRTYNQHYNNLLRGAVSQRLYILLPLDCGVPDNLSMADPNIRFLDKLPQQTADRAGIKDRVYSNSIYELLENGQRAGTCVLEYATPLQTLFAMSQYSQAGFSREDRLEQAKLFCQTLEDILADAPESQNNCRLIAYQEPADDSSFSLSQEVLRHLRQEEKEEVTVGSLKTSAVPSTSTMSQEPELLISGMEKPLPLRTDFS

What was measured:
[1] = target: T1, IFI16 (Homo sapiens, UniProt Q16666); assay: Pull down with peptide as bait and THP1 cell lysates as prey, immunoblotting: IFI16; type: binding; conditions: THP1 cell lysates, biotin-peptide on streptavidin beads
T1 construct: endogenous in cells; host or cells: THP1 cell lysate
T1 sequence (Q16666 1-785): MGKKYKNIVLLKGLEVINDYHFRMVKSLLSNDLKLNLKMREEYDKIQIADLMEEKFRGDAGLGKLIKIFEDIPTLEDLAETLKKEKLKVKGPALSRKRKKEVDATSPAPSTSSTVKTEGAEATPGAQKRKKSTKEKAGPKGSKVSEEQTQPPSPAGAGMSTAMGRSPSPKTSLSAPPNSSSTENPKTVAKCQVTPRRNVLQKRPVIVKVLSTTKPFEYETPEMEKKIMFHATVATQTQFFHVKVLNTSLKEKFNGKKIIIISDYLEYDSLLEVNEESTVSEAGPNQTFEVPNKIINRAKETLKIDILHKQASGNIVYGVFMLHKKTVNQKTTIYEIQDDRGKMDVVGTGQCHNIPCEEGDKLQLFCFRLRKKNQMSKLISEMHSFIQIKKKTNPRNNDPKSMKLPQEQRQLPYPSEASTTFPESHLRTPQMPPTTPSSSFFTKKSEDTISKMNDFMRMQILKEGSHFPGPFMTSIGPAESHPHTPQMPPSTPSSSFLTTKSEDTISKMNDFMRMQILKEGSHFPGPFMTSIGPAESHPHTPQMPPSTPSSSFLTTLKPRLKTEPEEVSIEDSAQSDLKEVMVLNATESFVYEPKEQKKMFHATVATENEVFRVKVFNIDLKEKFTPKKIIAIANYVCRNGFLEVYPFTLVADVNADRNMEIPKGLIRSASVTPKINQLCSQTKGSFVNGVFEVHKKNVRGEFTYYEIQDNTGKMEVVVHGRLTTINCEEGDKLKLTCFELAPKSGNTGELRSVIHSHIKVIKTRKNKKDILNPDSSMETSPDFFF

[2] = target: T2, recombinant human STING protein (excluding the Transmembrane domain) (Homo sapiens, UniProt Q86WV6); assay: Pull down of affinity-purified recombinant STING protein by peptide; type: binding; conditions: high salt wash, NaCl 500 mM
T2 construct: recombinant human STING protein (excluding the Transmembrane domain)

[3] = target: T3, IRF3 (Homo sapiens, UniProt Q14653); assay: Pull down with peptide as bait and THP1 cell lysates as prey, immunoblotting: IRF3; type: binding; conditions: THP1 cell lysates, biotin-peptide on streptavidin beads
T3 construct: endogenous in cells; host or cells: THP1 cell lysate
T3 sequence (Q14653 1-427): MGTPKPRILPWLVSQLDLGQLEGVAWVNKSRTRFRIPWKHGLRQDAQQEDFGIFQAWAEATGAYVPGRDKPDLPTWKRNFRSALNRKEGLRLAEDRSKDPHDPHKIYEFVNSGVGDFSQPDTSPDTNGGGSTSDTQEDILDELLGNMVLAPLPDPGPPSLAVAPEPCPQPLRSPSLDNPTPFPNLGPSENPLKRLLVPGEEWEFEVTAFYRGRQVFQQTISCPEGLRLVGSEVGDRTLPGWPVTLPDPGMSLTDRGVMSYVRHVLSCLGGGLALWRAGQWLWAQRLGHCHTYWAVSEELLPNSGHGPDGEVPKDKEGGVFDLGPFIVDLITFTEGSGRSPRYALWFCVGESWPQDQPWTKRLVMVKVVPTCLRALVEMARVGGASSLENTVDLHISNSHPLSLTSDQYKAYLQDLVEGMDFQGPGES

[4] = Circular dichroism spectrum of polypeptides; type: physicochemical; conditions: in the recommended buffer
Source text: FIG. 5. CD spectra of polypeptides with specific alanine mutations.
The Example illustrate the CD spectrum of polypeptide (SEQ ID NO. 6) and two alanine mutations (SEQ ID NO. 17 and 19). […] FIG. 5.

[5] = target: T4, STING (Homo sapiens, UniProt Q86WV6, G230A/H232R/R293Q/R71H); assay: STING phosphorylation time course in THP1 cells after cGAMP, immunoblotting; type: cell-based; conditions: cGAMP alone or after pre-stimulation with polypeptide
T4 construct: endogenous in cells; host or cells: THP1 (PMA-differentiated in the phosphorylation time course)

[6] = target: T5, TBK1 (Homo sapiens, UniProt Q9UHD2); assay: Pull down with peptide as bait and THP1 cell lysates as prey, immunoblotting: TBK1; type: binding; conditions: THP1 cell lysates, biotin-peptide on streptavidin beads
T5 construct: endogenous in cells; host or cells: THP1
T5 sequence (Q9UHD2 1-729): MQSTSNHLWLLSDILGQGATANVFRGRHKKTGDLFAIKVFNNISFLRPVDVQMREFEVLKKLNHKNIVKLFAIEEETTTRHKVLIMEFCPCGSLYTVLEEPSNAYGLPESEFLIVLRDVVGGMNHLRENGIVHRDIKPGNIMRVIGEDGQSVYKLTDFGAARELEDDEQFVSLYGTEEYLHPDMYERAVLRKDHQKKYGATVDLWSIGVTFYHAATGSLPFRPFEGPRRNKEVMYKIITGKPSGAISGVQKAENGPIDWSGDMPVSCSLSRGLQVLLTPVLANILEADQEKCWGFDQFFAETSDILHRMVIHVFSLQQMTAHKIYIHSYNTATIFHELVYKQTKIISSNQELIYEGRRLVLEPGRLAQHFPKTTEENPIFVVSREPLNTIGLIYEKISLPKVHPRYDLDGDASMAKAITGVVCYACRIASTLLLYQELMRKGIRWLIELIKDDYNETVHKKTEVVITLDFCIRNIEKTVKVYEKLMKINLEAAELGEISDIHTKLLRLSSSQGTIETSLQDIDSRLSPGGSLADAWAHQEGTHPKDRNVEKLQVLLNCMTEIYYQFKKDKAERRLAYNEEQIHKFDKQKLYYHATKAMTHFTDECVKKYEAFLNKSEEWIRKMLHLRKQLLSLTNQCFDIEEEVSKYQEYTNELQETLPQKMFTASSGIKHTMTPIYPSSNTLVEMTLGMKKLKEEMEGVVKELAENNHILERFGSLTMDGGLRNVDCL

[7] = target: T4, STING; assay: Pull down with peptide as bait and THP1 cell lysates as prey, immunoblotting: STING; type: binding; conditions: THP1 cell lysates, biotin-peptide on streptavidin beads
[8] = tested on: TBK1; assay: TBK1 phosphorylation time course in THP1 cells after cGAMP, immunoblotting; type: cell-based, human; conditions: cGAMP alone or after pre-stimulation with polypeptide

KKYKNIVLLKGLEVINDYHF-NH2 [peptide 101]
interaction with IFI16 (pulldown) ([1]; listed as SEQ ID NO 6): directly binds | interaction with IFI16 (pulldown) ([1]; listed as SEQ ID NO. 6): interacted | direct interaction with recombinant STING (pulldown) [2]: pulled-down STING even under high salt concentrations | interaction with IRF3 (pulldown) [3]: nor IRF3 | secondary structure from CD spectrum [4]: random coil-coil formation | time post stimulation with cGAMP at which STING-S366 phosphorylation is seen [5]: less than 30 mins | interaction with TBK1 (pulldown) ([6]; listed as SEQ ID NO 6): not TBK1 | interaction with TBK1 (pulldown) ([6]; listed as SEQ ID NO. 6): but not TKB1 | interaction with STING (pulldown) ([7]; listed as SEQ ID NO 6): directly binds | interaction with STING (pulldown) ([7]; listed as SEQ ID NO. 6): interacted | time post stimulation with cGAMP at which TBK1 phosphorylation is seen [8]: less than 30 mins
